Measured values taken from PubChem BioAssay (Tox21).
Where “and” joins values, the source holds several entries; their conditions need not be identical. Equal entries are not always repeated. Inconclusive means that the source gave no clear call. Such entries were picked first, then a sample of the others. For some of these results: Potencies of inconclusive entries are doubtful fits and often do not repeat. Where a structure was tested more than once in an assay, its records may differ in their call. Calls of active or inactive are those of the source. The call rests on the fitted dose curve; in most records, active means well fitted curve in the direction sought with a large enough effect in the repeat runs; inconclusive means weak or mixed curves; inactive means no such curve, though single readings can be large; an effect the other way counts as inactive or inconclusive.

The chains behind the UniProt entries cited, without tags or fusion partners. Where a name states a change or a piece, a line headed by the entry shows the natural chain unless it says otherwise.
UniProt P11712, whole entry, looked up: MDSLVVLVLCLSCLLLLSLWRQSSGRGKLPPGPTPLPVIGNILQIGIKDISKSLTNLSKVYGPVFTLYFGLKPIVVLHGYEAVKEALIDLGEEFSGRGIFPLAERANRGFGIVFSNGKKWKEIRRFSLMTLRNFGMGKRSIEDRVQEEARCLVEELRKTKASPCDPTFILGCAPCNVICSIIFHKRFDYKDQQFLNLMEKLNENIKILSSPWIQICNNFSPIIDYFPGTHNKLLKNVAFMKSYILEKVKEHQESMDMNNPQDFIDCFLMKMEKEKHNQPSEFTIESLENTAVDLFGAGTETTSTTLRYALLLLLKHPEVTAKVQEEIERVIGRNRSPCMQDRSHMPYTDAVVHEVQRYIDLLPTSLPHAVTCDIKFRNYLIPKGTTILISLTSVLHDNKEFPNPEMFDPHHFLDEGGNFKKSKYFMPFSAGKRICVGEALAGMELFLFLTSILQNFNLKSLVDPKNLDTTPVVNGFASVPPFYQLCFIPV
UniProt P05177, whole entry, looked up: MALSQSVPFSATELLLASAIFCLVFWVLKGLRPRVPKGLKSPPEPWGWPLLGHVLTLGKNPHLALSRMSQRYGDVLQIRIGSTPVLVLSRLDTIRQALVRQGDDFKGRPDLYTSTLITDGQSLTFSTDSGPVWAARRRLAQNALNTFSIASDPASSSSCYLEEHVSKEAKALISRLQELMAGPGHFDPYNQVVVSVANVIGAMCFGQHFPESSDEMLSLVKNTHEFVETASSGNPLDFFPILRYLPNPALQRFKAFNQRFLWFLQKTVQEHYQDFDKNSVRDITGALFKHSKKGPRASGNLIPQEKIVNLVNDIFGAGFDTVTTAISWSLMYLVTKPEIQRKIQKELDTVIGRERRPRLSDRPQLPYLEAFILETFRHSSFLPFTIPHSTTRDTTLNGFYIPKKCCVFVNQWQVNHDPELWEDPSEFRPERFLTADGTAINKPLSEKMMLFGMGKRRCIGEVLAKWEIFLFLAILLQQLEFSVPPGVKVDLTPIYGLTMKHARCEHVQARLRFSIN
UniProt Q12809: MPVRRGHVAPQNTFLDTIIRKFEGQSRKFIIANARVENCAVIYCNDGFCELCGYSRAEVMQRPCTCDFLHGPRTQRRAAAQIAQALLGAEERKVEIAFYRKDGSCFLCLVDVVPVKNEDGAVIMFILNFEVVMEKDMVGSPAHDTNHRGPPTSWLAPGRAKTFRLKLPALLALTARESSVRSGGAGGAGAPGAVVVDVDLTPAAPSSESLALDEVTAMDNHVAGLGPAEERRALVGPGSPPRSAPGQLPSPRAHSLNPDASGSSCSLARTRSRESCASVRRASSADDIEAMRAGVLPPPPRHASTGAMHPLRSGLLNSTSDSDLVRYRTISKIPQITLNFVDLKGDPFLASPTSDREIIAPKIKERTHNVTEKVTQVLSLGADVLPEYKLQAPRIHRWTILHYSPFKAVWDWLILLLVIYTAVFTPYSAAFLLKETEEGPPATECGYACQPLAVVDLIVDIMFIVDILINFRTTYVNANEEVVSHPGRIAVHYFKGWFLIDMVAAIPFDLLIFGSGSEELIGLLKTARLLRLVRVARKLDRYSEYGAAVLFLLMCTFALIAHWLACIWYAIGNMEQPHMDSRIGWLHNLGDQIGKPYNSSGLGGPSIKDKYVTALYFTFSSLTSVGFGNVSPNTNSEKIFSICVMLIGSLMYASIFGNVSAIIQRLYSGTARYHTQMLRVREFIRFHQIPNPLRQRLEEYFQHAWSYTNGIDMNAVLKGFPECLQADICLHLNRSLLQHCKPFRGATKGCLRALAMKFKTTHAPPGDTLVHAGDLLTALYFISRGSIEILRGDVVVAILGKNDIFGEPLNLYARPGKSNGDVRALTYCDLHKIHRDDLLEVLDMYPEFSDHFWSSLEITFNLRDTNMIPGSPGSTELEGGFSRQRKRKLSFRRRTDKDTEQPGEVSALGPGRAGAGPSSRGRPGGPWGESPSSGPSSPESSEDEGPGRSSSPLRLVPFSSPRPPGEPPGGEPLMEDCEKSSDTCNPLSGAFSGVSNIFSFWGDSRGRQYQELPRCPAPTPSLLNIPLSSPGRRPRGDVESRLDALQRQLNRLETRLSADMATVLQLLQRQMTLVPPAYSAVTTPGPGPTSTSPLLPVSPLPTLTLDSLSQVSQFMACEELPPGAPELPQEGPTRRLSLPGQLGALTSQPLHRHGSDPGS
UniProt P08684, whole entry, looked up: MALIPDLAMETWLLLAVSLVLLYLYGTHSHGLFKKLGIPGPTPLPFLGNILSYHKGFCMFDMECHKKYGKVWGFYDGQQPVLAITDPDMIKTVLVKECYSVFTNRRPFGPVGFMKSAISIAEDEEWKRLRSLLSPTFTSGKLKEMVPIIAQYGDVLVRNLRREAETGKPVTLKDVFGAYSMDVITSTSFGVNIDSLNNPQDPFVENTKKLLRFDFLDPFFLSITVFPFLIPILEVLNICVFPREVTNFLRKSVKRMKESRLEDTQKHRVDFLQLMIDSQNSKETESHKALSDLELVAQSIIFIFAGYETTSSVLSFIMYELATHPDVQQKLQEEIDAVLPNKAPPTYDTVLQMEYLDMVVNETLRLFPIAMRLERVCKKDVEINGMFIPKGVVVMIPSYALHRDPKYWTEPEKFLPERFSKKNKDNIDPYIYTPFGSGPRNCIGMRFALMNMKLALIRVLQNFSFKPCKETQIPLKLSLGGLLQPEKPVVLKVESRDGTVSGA

Legend:
[1] = biological target: Cytochrome P450 2C9 (Homo sapiens) (UniProt P11712); assay: Cytochrome P450 Family 2 Subfamily C Member 9 (CYP2C9) small molecule antagonists: luciferase reporter qHTS assay (AID 1671198); on activity change, negative = inhibition: series mostly up to about 120 µM
Summary of the method: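 Enzyme-substrate mix preincubated with compound 10 min at room temperature; reaction started with NADPH regeneration solution, 1 h 37C. Luminescent luciferin product read after 20 min detection reagent.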

[2] = biological target: Cytochrome P450 1A2 (Homo sapiens) (UniProt P05177); assay: Cytochrome P450 Family 1 Subfamily A Member 2 (CYP1A2) small molecule antagonists: luciferase reporter qHTS assay (AID 1671199); on activity change, negative = inhibition: series mostly up to about 120 µM
Summary of the method: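 Luminescence from luciferin formed by CYP1A2 from a proluciferin substrate, read 20 min after detection reagent. Compound was pre-incubated 10 min with enzyme-substrate, and reaction started with NADPH regeneration solution for 1 h at room temperature; furafylline control.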

[3] = biological target: Voltage-gated inwardly rectifying potassium channel KCNH2 (Homo sapiens) (UniProt Q12809); assay: Human Ether-a-go-go-Related Gene (hERG) channel small molecule antagonists: fluorescence cell-based qHTS assay (AID 1671200);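 on activity change, negative = inhibition: hERG-expressing U2OS cells given a thallium stimulus after FluxOR II dye loading; series mostly up to about 77 µM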
Summary of the method: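 Thallium served as the potassium surrogate; its influx into dye-loaded U2OS cells carrying the channel was measured by fluorescence over 2 min.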

[4] = biological target: Cytochrome P450 3A4 (Homo sapiens) (UniProt P08684); assay: Cytochrome P450 Family 3 Subfamily A Member 4 (CYP3A4) small molecule antagonists: luciferase reporter qHTS assay (AID 1671201); on activity change, negative = inhibition: series mostly up to about 120 µM
Summary of the method: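 Relative luminescence units after 20 min with luciferin detection reagent served as read-out. Beforehand, CYP3A4 turned over a proluciferin substrate for 1 h at room temperature with NADPH regeneration, following 10 min compound preincubation.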
Further: nearly all actives have a fitted effect of over 50% in size.
On the % scale 0 is the no-effect control and ±100 the full control effect; potency means the concentration at half of the fitted maximal effect.

## O=c1[nH][nH]c2ccccc12
[1]
  Potency: inconclusive: 45.7 µM [inhibitor, partial curve]
[2]
  Potency: active: 10.2 µM

## C=CCOC(=O)CCCCCC
[1]
  Potency: inactive
[3]
  Potency: inactive

## NC(Cc1ccc(Cl)cc1)C(=O)O (configuration not stated)
[2]
  activity change, negative = inhibition: inactive: 10.8% [at 0.435 µM]

## CCCC(=O)Nc1ccc(O)c(C(C)=O)c1
[1]
  Potency: inconclusive: 19.5 µM [inhibitor, partial curve, poor fit]
[2]
  Potency: active: 9.77 µM

## Cc1ccc2c(Cl)cc(Cl)c(O)c2n1
[1]
  Potency: inactive
[2]
  Potency: inconclusive: 38.9 µM [inhibitor, partial curve, poor fit]
[4]
  Potency: inconclusive: 17.4 µM [inhibitor, partial curve, poor fit]

## CC(CC(=O)Cl)CC(C)(C)C (configuration not stated)
[1]
  Potency: inconclusive: 63.7 µM [inhibitor, partial curve, poor fit]
[2]
  Potency: inconclusive: 71.5 µM [inhibitor, partial curve, poor fit]
[4]
  Potency: inactive

## COc1cc(Cl)ccc1Cl
[2]
  Potency: active: 36.3 µM

## Cc1c[nH]c(=O)[nH]c1=O
[1]
  Potency: inactive
[2]
  Potency: inconclusive: 71 µM [inhibitor, partial curve, poor fit]

## CC(C)OC(C)C
[2]
  Potency: inactive

## CC(C)(C)C(=O)Oc1ccc(S(=O)(=O)Nc2ccccc2C(=O)NCC(=O)O)cc1
[1]
  Potency: inconclusive: 24.5 µM [inhibitor, partial curve, poor fit]
[2]
  Potency: inactive

## C=CCOc1cc(Cl)ccc1C(=O)NCCN(CC)CC
[1]
  Potency: inactive
[3]
  Potency: active: 9.52 µM

## O=C(O)Cc1c[nH]c2ccccc12
[1]
  Potency: active: 31.7 µM and inactive
[2]
  Potency: inconclusive: 35.6 µM [inhibitor, full curve] and inactive

## CC(C)C(=O)O
[2]
  Potency: inactive

## C/C=C/C(=O)CC
[1]
  activity change, negative = inhibition: inactive: -11% [at 23.6 µM]
[2]
  Potency: inconclusive: 13.7 µM [inhibitor, partial curve]
[4]
  Potency: inconclusive: 12.2 µM [inhibitor, partial curve]

## O=C(CS)OCCOC(=O)CS
[1]
  Potency: inconclusive: 35.6 µM [inhibitor, partial curve]
[4]
  Potency: active: 28.3 µM

## CC1=CCC(O)(C(C)C)CC1 (configuration not stated)
[1]
  Potency: inactive
[2]
  Potency: inactive

## CC1=CP(=O)(c2ccccc2)CC1 (configuration not stated)
[2]
  Potency: inactive

## CC(=O)OC1CCCCC1
[2]
  Potency: inactive

## CCCCC[Si](OCC)(OCC)OCC
[2]
  Potency: inconclusive: 63.3 µM [inhibitor, partial curve, poor fit]

## CCOC(OCC)OCC
[1]
  Potency: inactive
[2]
  Potency: inconclusive: 35.6 µM [inhibitor, partial curve]

## Cc1cccnc1
[1]
  Potency: inactive
[2]
  Potency: inconclusive: 64.3 µM [inhibitor, partial curve, poor fit]

## CCN(CCO)c1cccc(C)c1
[1]
  Potency: inconclusive: 35.6 µM [inhibitor, partial curve]
[2]
  Potency: active: 28.3 µM
[3]
  Potency: inactive
[4]
  Potency: inconclusive: 35.6 µM [inhibitor, partial curve]

## CC(O)CC(C)(C)O (configuration not stated)
[2]
  Potency: inconclusive: 62 µM [inhibitor, partial curve, poor fit]

## NC(=O)c1ncn([C@@H]2O[C@H](CO)[C@@H](O)[C@H]2O)c1N
[2]
  Potency: inactive

## Cc1ccc(Cl)cc1Cl
[2]
  Potency: inconclusive: 71 µM [inhibitor, partial curve]

## Cc1c(F)cc2c(=O)c(C(=O)O)cn3c2c1CCC3C (configuration not stated)
[2]
  Potency: inactive

## O=[N+]([O-])c1ccc(NCCO)c(OCCO)c1
[2]
  Potency: active: 17.9 µM

## O=C(C(=O)c1ccc(Br)cc1)c1ccc(Br)cc1
[2]
  Potency: inconclusive: 9.92 µM [inhibitor, partial curve]

## CSc1cnccn1
[2]
  Potency: inactive

## CC(C)C[C@H](NC(=O)CNC(=O)[C@H](Cc1ccc(O)cc1)NC(=O)[C@H](CO)NC(=O)[C@H](Cc1c[nH]c2ccccc12)NC(=O)[C@H](Cc1cnc[nH]1)NC(=O)[C@@H]1CCC(=O)N1)C(=O)N[C@@H](CCCN=C(N)N)C(=O)N1CCC[C@H]1C(=O)NCC(N)=O (stereo in doubt)
[2]
  Potency: inconclusive: 24.5 µM [inhibitor, partial curve]

## N#Cc1ccccc1
[2]
  Potency: inactive and inconclusive: 63.3 µM [inhibitor, partial curve]

## N#CCN(CC#N)CCN(CC#N)CC#N
[2]
  Potency: inconclusive: 39.9 µM [inhibitor, partial curve]
